Values quoted from earlier work in patent US20160213639A1, “COMPOSITIONS AND METHODS FOR TREATING NON-ALCOHOLIC STEATOHEPATITIS” (MOCHIDA PHARMACEUTICAL CO., LTD., priority 2013, published 2016).
At least one structure is not confirmed: it was looked up by name or label, or the drawing left a doubt.

Conditions: cited from earlier work

For `C[C@]12CC[C@@H]3c4ccc(O)cc4CC[C@H]3[C@@H]1CC[C@@H]2O` [estradiol], the “potency relative to estriol” value is listed as “approximately 80 times”.
